Experimental data as given in PubChem BioAssay AID330 (DTP/NCI, 2004).
The list shows only some results of the screen, not a fair sample: it gathers tests that were run many times, whatever their T/C, doses with no T/C, and many T/C values between a quarter and a half above the control. Other doses and runs of a compound stand elsewhere. T/C gives the treated animals as a percentage of the vehicle group. Some doses have a count of surviving animals in place of a T/C: the source files T/C as zero there, which appears to mark a toxic dose or a test without result, not a measured value. Some survivor counts are full or nearly so, which does not show that the dose was tolerated: the source hardly ever lists a survival T/C far under the control, and the zero likely stands for such cases as well. Survivors were counted at the toxicity check, usually on the fifth day, unless a day is given; later deaths do not show. Schedule codes are those of the source, read here as Q, the interval in days (D) or hours (H), X, the number of doses. For survival time, the PubChem record calls one and a half times the control and up active, and a quarter to a half above the control has no call in these data; cut-offs in other NCI protocols can differ. Some entries were tested several times; the results are listed from low to high.

System: P388 leukemia ip, CD2F1 mice, survival T/C
Experiment: NCI In Vivo Anticancer Drug Screen. Data for tumor model P388 Leukemia (intraperitoneal) in CD2F1 (CDF1) mice
Conditions: T/C endpoint: median survival time, higher T/C = longer survival
[1] = dose: 25.0 mg/kg/injection, schedule: Q01DX009 (ip), vehicle: saline with Tween-80
[2] = dose: 50.0 mg/kg/injection, schedule: Q01DX009 (ip), vehicle: saline with Tween-80
[3] = dose: 100.0 mg/kg/injection, schedule: Q01DX009 (ip), vehicle: saline with Tween-80
[4] = dose: 200.0 mg/kg/injection, schedule: Q01DX009 (ip), vehicle: saline with Tween-80
[5] = dose: 100.0 mg/kg/injection, schedule: Q01DX005 (ip), vehicle: saline with Tween-80
[6] = dose: 200.0 mg/kg/injection, schedule: Q01DX005 (ip), vehicle: saline with Tween-80
[7] = dose: 400.0 mg/kg/injection, schedule: Q04DX003 (ip), vehicle: saline with Tween-80
[8] = dose: 400.0 mg/kg/injection, schedule: Q01DX009 (ip), vehicle: saline with Tween-80
[9] = dose: 240.0 mg/kg/injection, schedule: Q01DX005 (ip), vehicle: saline with Tween-80

CC(=O)Nc1ccc(C(=O)C=O)cc1
T/C [1]: 130 % of control | T/C [2]: 125 and 127 % of control | T/C [3]: 137 % of control | survivor count [4]: 5 of 6

c1ccc2c(c1)c1c(c3ccccc32)CNCC1
survivor count (dose: 25.0 mg/kg/injection, schedule: Q01DX005 (ip), vehicle: saline with Tween-80): 5 of 5 | survivor count (dose: 50.0 mg/kg/injection, schedule: Q01DX005 (ip), vehicle: saline with Tween-80): 4 of 5 | survivor count [5]: 1 of 6 | survivor count [6]: 0 of 6

CC(C)(C)N1CC1C#N (stereo not drawn)
survivor count [1]: 6 of 6 | survivor count [2]: 0 of 6 | survivor count [3]: 0 of 6

CCOC(=O)N(O)c1ccc(C)cc1C
survivor count [6]: 1 of 5

C1CN1Sc1nc(SN2CC2)nc(SN2CC2)n1
survivor count (dose: 240.0 mg/kg/injection, schedule: Q01DX005 (ip), vehicle: Klucel (hydroxypropylcellulose) (HPC)): 0 of 6

CCOC(=O)Nc1cc(NC/C(CN(C)c2ccc(OC)cc2)=N/O)c([N+](=O)[O-])c(N)n1
survivor count [6]: 6 of 6

[Ni+2].[S-]CC[S-]
survivor count [7]: 2 of 6

CC1CCCCN1C (stereo not drawn)
survivor count [6]: 0 of 6

CCC(=O)Sc1ccccc1C(=O)Nc1ccc(Cl)cc1
T/C [2]: 126 and 139 % of control | T/C [4]: 130 % of control | survivor count [8]: 0 of 6

O=C(N/C(=C/c1ccc(Cl)cc1Cl)c1nc2ccccc2s1)c1ccccc1
survivor count [6]: 2 of 6

CC1=C(C#N)C(C)(C)C(C#N)=C(C)N1
survivor count (dose: 100.0 mg/kg/injection, schedule: Q01DX009 (ip), vehicle: other): 5 of 6 | survivor count (dose: 200.0 mg/kg/injection, schedule: Q01DX009 (ip), vehicle: other): 0 of 6 | survivor count (dose: 400.0 mg/kg/injection, schedule: Q01DX009 (ip), vehicle: other): 0 of 6

O=C(O)C(O)C(O)C(=O)O.O=C(O)C(O)C(O)C(=O)O.[O]=[V].[O]=[V] (stereo not drawn)
survivor count (dose: 50.0 mg/kg/injection, schedule: Q01DX009 (ip), vehicle: saline): 1 of 6 | survivor count (dose: 60.0 mg/kg/injection, schedule: Q01DX009 (ip), vehicle: saline): 1 of 6 | survivor count (dose: 100.0 mg/kg/injection, schedule: Q04DX003 (ip), vehicle: saline sonified): 3 of 6 | survivor count (dose: 120.0 mg/kg/injection, schedule: Q01DX009 (ip), vehicle: saline): 0 of 6

CC(=Nc1c(C)noc1/C=C/c1ccccc1)NO
survivor count (dose: 200.0 mg/kg/injection, schedule: Q04DX002 (ip), vehicle: saline with Tween-80): 6 of 6 | survivor count (dose: 400.0 mg/kg/injection, schedule: Q04DX002 (ip), vehicle: saline with Tween-80): 6 of 6

Cc1ccccc1-n1c(=S)n(-c2ccc(Cl)cc2)c2nc3ccccc3nc1/c2=N/Nc1ccccc1
survivor count [5]: 4 of 6 | survivor count [6]: 3 of 6

CCOC(=O)C(CO)NC(=O)c1cnc2ccccc2c1 (stereo not drawn)
survivor count [9]: 6 of 6

O=c1c2ccccc2nc(-c2ccccc2)n1O
T/C (dose: 25.0 mg/kg/injection, schedule: Q01DX009 (ip), vehicle: Klucel (hydroxypropylcellulose) (HPC)): 138 % of control | survivor count (dose: 50.0 mg/kg/injection, schedule: Q01DX009 (ip), vehicle: Klucel (hydroxypropylcellulose) (HPC)): 2 of 6

O=C(CCl)NN=C1C2CC3CC(C2)CC1C3
survivor count [4]: 1 of 6 | survivor count [8]: 0 of 6

CN(C)c1ncnc2c1ncn2CCn1cnc2c(N(C)C)ncnc21
survivor count (dose: 200.0 mg/kg/injection, schedule: Q01DX005 (ip), vehicle: Klucel (hydroxypropylcellulose) (HPC)): 0 of 6

S=c1[nH]c(=S)c2[nH]c(=S)[nH]c2[nH]1
survivor count [5]: 6 of 6

CCOC(=O)C(C(C)=O)C(c1cc(OC)c(OC)c(OC)c1)c1cc2c(cc1O)OCO2 (stereo not drawn)
T/C [9]: 143 % of control

CN(C)c1ccc(Cc2ccc(N(C)C)c(C(O)(c3ccccc3)c3ccccc3)c2)cc1C(O)(c1ccccc1)c1ccccc1
survivor count [2]: 6 of 6 | survivor count [3]: 6 of 6 | survivor count [4]: 6 of 6

O=C(CCCCl)CC(O)(C(F)(F)F)C(F)(F)F
survivor count [7]: 1 of 6
